Data as given in PubChem BioAssay AID1224831 (NIAID, 2016).

- Purpose: 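Retesting screen hits on the TLR4-driven TNF response with six separate siRNAs each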 (follow-up of hits)
- Cells: human THP-1 B5 monocytic leukaemia cells carrying a TNF promoter luciferase reporter, made macrophage-like with PMA
- Reagent: single siRNA against human genes, 50 nM
- Timing: about 68 h of knock-down, then 4 h LPS
- Challenge: LPS (Salmonella minnesota, TLR-grade) at 10 ng/ml for 4 h; PMA 5 ng/ml present during knock-down
- Read-out: 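TNF promoter reporter read as dual luciferase ratio after 4 h LPS, normalised per plate to its median, given as replicate mean robust z-score per siRNA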
- Direction: TNF reporter z-score: higher = stronger LPS-induced TNF reporter signal; z-score, median over gene's siRNAs: higher = stronger TNF reporter signal across the gene's siRNAs
- Rule for the call: 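Two-sided call: reduced or raised TNF reporter signal counts as active once mean z reaches about -1 or below, or about 1.5 or above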
- Calls: active = changed TNF reporter (either direction); inactive = little change
The whole screen tested about 3,500 reagents; below is an unselected part. 731 of all reagents (21%) count as active. 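Active means either lowered or raised reporter signal; the gene-median score did not drive the per-siRNA calls.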 A number with no mark means an inactive call. Reagents against one gene are numbered here.

The first 9 records, ahead of the listing:
target,reagent no.,"TNF reporter z-score, replicate mean","z-score, median over gene's siRNAs"
DNASE1 (GeneID 1773),1,-1.41 (active),-0.43
DNASE1 (GeneID 1773),2,-0.45,-0.43
DNASE1 (GeneID 1773),3,0.63,-0.43
DNASE1 (GeneID 1773),4,-0.41,-0.43
DNASE1 (GeneID 1773),5,-0.81,-0.43
DNASE1 (GeneID 1773),6,0.02,-0.43
DUS3L (GeneID 56931),1,1.12,0.375
DUS3L (GeneID 56931),2,0.32,0.375
DUS3L (GeneID 56931),3,-0.26,0.375

The list itself, repeating the preview:
target,reagent no.,"TNF reporter z-score, replicate mean","z-score, median over gene's siRNAs"
DNASE1 (GeneID 1773),1,-1.41 (active),-0.43
DNASE1 (GeneID 1773),2,-0.45,-0.43
DNASE1 (GeneID 1773),3,0.63,-0.43
DNASE1 (GeneID 1773),4,-0.41,-0.43
DNASE1 (GeneID 1773),5,-0.81,-0.43
DNASE1 (GeneID 1773),6,0.02,-0.43
DUS3L (GeneID 56931),1,1.12,0.375
DUS3L (GeneID 56931),2,0.32,0.375
DUS3L (GeneID 56931),3,-0.26,0.375
DUS3L (GeneID 56931),4,2.09 (active),0.375
DUS3L (GeneID 56931),5,0.43,0.375
DUS3L (GeneID 56931),6,0.1,0.375
HSPH1 (GeneID 10808),1,2.9 (active),-0.345
HSPH1 (GeneID 10808),2,-0.31,-0.345
HSPH1 (GeneID 10808),3,0.71,-0.345
HSPH1 (GeneID 10808),4,-1.61 (active),-0.345
HSPH1 (GeneID 10808),5,-0.38,-0.345
HSPH1 (GeneID 10808),6,-0.66,-0.345
MYBL2 (GeneID 4605),1,-0.33,0.44
MYBL2 (GeneID 4605),2,0.63,0.44
MYBL2 (GeneID 4605),3,0.42,0.44
MYBL2 (GeneID 4605),4,0.73,0.44
MYBL2 (GeneID 4605),5,-1.21 (active),0.44
MYBL2 (GeneID 4605),6,0.46,0.44
WDR31 (GeneID 114987),1,-0.2,0.08
WDR31 (GeneID 114987),2,0.36,0.08
WDR31 (GeneID 114987),3,-2.47 (active),0.08
WDR31 (GeneID 114987),4,0.5,0.08
WDR31 (GeneID 114987),5,-1.03 (active),0.08
WDR31 (GeneID 114987),6,0.8,0.08
TCEAL1 (GeneID 9338),1,1.71 (active),-0.005
TCEAL1 (GeneID 9338),2,0,-0.005
TCEAL1 (GeneID 9338),3,-0.16,-0.005
TCEAL1 (GeneID 9338),4,1.77 (active),-0.005
TCEAL1 (GeneID 9338),5,-0.14,-0.005
TCEAL1 (GeneID 9338),6,-0.01,-0.005
WDR5B (GeneID 54554),1,0.89,1.55
WDR5B (GeneID 54554),2,1.38,1.55
WDR5B (GeneID 54554),3,2.12 (active),1.55
WDR5B (GeneID 54554),4,1.73 (active),1.55
WDR5B (GeneID 54554),5,0.92,1.55
WDR5B (GeneID 54554),6,2.15 (active),1.55
ZNF607 (GeneID 84775),1,0.76,0.365
ZNF607 (GeneID 84775),2,-0.33,0.365
ZNF607 (GeneID 84775),3,0.2,0.365
ZNF607 (GeneID 84775),4,-0.36,0.365
ZNF607 (GeneID 84775),5,0.83,0.365
ZNF607 (GeneID 84775),6,0.53,0.365
SPAG1 (GeneID 6674),1,-0.77,-0.705
SPAG1 (GeneID 6674),2,-0.64,-0.705
SPAG1 (GeneID 6674),3,1.25,-0.705
SPAG1 (GeneID 6674),4,-0.81,-0.705
SPAG1 (GeneID 6674),5,-1.31 (active),-0.705
SPAG1 (GeneID 6674),6,0.8,-0.705
CCR2 (GeneID 729230),1,-0.52,0.83
CCR2 (GeneID 729230),2,1.14,0.83
CCR2 (GeneID 729230),3,1.49,0.83
CCR2 (GeneID 729230),4,-0.02,0.83
CCR2 (GeneID 729230),5,0.52,0.83
CCR2 (GeneID 729230),6,4.17 (active),0.83
RASA4 (GeneID 10156),1,-0.28,0.59
RASA4 (GeneID 10156),2,0.41,0.59
RASA4 (GeneID 10156),3,0.77,0.59
RASA4 (GeneID 10156),4,1.36,0.59
RASA4 (GeneID 10156),5,-0.53,0.59
RASA4 (GeneID 10156),6,1.11,0.59
MGAT2 (GeneID 4247),1,-0.22,-0.29
MGAT2 (GeneID 4247),2,0.46,-0.29
MGAT2 (GeneID 4247),3,-1.07 (active),-0.29
MGAT2 (GeneID 4247),4,-0.23,-0.29
MGAT2 (GeneID 4247),5,-1.47 (active),-0.29
MGAT2 (GeneID 4247),6,-0.35,-0.29
VPREB3 (GeneID 29802),1,0.45,0.32
VPREB3 (GeneID 29802),2,-0.54,0.32
VPREB3 (GeneID 29802),3,-0.8,0.32
VPREB3 (GeneID 29802),4,0.88,0.32
VPREB3 (GeneID 29802),5,1.11,0.32
VPREB3 (GeneID 29802),6,0.19,0.32
FBXW7 (GeneID 55294),1,-0.4,-0.475
FBXW7 (GeneID 55294),2,-0.79,-0.475
FBXW7 (GeneID 55294),3,-0.44,-0.475
FBXW7 (GeneID 55294),4,-0.86,-0.475
FBXW7 (GeneID 55294),5,-0.51,-0.475
FBXW7 (GeneID 55294),6,1.18,-0.475
